From PMC11189303

Amino acid sequences for entries named in this document (tags omitted). Residues count along the entry.
UniProt Q9NX08: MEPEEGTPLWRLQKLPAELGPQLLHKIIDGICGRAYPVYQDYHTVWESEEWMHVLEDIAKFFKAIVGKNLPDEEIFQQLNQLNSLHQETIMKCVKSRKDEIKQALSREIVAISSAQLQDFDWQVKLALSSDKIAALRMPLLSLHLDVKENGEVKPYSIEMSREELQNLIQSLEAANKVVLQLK
UniProt Q8N668: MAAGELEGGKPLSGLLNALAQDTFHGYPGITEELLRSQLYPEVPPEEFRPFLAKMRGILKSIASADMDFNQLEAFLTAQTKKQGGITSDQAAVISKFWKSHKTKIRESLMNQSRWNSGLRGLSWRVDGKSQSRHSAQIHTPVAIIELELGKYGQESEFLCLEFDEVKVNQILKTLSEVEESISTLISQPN
UniProt Q86X83: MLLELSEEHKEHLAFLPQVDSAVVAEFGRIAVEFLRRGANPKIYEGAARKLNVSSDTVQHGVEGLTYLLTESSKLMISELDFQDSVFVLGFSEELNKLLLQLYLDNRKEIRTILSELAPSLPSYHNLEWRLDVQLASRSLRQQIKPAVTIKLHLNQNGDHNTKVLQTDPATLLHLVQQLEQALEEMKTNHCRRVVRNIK
UniProt Q7Z4G1: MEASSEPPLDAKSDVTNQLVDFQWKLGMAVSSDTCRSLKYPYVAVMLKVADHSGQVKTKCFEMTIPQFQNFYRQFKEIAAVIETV
UniProt O60826: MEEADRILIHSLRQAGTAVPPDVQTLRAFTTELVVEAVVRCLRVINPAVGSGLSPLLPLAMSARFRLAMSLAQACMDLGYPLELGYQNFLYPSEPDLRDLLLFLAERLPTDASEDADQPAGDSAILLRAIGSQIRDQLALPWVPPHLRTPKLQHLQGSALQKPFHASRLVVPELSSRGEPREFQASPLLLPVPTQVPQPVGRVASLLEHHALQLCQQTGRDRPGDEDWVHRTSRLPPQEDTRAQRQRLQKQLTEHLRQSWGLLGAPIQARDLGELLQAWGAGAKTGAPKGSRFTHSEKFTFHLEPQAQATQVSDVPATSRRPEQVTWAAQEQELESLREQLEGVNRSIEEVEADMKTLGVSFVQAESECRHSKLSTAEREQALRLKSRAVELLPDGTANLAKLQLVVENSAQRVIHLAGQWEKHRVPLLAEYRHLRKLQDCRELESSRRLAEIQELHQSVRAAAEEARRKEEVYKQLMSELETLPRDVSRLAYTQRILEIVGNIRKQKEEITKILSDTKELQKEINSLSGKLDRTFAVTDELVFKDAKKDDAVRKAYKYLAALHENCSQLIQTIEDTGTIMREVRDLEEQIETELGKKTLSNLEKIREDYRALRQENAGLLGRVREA
UniProt Q567U6: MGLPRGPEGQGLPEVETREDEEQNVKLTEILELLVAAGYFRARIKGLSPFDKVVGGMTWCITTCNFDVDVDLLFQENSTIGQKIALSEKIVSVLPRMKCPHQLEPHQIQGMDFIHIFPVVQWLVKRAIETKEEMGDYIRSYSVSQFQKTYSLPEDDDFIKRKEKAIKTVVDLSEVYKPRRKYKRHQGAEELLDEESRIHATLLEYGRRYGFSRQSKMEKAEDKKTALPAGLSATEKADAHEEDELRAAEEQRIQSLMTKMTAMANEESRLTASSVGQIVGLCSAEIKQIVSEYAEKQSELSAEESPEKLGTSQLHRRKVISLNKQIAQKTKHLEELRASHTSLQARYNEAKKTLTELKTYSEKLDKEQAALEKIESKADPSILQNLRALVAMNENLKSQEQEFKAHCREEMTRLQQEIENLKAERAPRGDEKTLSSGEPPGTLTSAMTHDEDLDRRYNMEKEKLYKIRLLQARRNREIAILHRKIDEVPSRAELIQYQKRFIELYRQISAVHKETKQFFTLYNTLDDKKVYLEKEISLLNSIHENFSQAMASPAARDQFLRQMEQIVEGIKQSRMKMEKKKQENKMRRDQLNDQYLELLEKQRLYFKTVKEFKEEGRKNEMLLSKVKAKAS
UniProt Q9Y6G5: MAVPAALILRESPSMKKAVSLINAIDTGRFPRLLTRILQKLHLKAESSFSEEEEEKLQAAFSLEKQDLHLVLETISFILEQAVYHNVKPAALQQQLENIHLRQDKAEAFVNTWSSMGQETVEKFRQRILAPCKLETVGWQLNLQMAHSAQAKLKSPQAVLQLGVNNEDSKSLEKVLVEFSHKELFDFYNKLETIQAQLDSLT
UniProt Q9H0A8: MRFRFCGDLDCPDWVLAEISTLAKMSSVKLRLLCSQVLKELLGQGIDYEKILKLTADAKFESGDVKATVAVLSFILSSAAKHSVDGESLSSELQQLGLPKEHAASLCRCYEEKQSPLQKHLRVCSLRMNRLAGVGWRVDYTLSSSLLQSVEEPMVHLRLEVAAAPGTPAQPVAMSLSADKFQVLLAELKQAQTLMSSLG
UniProt Q9GZQ3: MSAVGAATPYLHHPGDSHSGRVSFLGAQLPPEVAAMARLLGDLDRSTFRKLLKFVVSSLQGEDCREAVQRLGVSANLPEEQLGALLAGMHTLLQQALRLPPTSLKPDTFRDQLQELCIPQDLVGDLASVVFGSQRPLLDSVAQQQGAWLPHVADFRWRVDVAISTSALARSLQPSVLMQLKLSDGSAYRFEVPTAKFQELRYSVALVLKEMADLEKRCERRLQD
UniProt Q16254: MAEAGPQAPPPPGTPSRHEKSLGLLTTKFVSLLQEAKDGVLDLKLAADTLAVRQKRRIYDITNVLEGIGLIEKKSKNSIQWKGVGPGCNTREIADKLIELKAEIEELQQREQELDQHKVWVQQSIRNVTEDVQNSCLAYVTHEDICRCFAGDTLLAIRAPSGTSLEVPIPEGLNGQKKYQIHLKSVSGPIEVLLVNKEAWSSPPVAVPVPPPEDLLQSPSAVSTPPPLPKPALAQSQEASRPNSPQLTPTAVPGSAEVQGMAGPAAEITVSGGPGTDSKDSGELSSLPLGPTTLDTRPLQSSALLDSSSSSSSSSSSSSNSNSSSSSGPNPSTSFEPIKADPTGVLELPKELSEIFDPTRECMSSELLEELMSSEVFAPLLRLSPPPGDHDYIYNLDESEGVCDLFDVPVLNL
UniProt Q02413, residues 50-1049: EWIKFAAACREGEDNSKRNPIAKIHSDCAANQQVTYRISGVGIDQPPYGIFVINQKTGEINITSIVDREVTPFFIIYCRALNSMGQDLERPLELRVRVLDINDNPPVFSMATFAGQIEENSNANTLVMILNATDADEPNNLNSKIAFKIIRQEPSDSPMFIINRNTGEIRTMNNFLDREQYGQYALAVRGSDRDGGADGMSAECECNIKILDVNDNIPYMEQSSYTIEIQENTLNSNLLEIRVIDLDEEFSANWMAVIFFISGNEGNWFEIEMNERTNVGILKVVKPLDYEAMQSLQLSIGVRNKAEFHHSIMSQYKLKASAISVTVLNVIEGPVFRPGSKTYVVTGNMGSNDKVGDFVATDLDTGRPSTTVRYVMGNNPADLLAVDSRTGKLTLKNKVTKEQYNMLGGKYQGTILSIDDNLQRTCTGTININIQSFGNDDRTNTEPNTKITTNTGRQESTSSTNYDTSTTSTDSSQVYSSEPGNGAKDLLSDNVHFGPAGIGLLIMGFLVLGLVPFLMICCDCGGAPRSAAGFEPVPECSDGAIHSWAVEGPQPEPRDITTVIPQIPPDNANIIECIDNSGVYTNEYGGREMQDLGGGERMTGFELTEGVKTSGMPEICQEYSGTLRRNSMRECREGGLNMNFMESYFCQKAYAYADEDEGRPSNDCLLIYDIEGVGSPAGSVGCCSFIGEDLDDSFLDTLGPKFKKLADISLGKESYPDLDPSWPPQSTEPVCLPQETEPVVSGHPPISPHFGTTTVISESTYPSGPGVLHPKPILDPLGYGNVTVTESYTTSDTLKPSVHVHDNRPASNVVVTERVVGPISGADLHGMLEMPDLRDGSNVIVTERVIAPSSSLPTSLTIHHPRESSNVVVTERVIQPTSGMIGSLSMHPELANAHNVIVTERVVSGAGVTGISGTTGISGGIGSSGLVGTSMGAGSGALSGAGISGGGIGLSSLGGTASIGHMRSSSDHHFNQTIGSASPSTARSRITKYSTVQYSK
UniProt O75461: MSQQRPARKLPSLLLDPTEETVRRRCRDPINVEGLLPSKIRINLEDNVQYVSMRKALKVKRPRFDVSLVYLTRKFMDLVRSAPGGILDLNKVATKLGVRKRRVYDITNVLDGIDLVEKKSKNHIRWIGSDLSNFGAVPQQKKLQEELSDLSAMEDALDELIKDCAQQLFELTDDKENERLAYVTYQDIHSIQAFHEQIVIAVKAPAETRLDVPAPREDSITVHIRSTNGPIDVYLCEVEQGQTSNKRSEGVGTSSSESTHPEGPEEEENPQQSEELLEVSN
UniProt P06396, residues 28-782: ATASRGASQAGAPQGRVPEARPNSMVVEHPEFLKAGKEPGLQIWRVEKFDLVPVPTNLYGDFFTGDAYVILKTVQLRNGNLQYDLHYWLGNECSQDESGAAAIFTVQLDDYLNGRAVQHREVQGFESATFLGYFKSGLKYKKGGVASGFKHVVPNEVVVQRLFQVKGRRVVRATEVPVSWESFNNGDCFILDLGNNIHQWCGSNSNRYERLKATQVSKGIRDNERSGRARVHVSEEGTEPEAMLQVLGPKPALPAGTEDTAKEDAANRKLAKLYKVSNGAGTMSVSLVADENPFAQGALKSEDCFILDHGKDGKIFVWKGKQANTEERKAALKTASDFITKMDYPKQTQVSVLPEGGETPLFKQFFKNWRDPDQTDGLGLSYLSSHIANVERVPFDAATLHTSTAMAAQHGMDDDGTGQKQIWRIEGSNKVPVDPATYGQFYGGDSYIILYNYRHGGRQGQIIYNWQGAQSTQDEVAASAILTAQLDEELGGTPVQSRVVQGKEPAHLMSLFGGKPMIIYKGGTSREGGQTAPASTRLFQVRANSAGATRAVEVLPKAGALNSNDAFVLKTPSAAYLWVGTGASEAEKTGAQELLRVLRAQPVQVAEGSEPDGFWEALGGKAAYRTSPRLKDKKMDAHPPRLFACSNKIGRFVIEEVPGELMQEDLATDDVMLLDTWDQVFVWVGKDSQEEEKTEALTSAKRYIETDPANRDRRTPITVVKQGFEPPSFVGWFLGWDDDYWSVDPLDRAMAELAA
UniProt P63092: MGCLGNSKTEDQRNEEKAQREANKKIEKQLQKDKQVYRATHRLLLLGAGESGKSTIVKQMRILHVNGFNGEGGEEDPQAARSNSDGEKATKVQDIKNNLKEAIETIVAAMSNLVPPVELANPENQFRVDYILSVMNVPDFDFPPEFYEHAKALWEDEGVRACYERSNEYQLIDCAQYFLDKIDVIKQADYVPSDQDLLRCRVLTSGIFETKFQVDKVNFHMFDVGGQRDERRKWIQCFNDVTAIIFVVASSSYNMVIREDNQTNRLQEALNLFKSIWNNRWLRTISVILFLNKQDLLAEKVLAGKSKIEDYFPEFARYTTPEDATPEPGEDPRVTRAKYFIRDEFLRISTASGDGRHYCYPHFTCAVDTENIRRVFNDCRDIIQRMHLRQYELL
UniProt Q13614: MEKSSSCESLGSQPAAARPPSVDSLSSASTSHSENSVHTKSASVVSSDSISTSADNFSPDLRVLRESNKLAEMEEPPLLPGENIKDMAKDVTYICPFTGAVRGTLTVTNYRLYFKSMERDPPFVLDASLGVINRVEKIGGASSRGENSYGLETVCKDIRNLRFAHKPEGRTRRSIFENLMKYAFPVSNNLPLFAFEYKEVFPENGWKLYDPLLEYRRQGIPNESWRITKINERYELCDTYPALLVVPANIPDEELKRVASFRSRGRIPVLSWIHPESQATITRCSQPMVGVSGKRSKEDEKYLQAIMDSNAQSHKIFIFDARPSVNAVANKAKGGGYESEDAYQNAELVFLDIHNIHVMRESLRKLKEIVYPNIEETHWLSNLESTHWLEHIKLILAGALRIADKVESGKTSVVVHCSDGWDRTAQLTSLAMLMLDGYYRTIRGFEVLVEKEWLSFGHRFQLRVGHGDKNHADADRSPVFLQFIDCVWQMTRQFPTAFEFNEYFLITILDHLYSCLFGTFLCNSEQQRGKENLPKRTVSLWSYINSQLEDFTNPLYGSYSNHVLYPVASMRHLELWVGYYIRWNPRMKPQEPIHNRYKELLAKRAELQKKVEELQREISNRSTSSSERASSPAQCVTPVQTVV
UniProt Q14186: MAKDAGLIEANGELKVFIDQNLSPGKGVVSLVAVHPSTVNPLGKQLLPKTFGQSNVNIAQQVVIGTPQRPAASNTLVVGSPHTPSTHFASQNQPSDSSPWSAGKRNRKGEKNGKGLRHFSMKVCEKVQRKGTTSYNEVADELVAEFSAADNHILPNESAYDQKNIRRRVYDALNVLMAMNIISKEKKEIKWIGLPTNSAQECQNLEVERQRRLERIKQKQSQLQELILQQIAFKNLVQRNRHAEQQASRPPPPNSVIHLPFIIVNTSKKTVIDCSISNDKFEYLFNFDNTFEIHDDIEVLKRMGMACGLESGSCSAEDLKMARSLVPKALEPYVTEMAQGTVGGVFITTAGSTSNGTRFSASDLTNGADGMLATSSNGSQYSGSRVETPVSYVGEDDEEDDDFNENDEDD

Experiments:
COMMD8 (human) = COMMD8 (human) (UniProt Q9NX08); assay: proximity labelling; BioID–MS: MAC-tagged (BirA*) bait in Flp-In T-REx 293, tetracycline and 50 μM biotin 24 h; lysis with 0.1% SDS and benzonase, Strep-Tactin beads; high-confidence interactions by SAINTexpress and CRAPome
COMMD1 (human) [1] = target: COMMD1 (human) (UniProt Q8N668); assay: affinity purification with mass spectrometry; MAC-tagged bait stably expressed in Flp-In T-REx 293 (tetracycline 24 h); cleared lysate (50 mM HEPES pH 8.0, 150 mM NaCl, 0.5% IGEPAL) on Strep-Tactin beads, eluted with biotin; high-confidence interactions by SAINTexpress (BFDR < 0.05) and CRAPome against MAC-tagged GFP controls
COMMD2 (human) [2] = target: COMMD2 (human) (UniProt Q86X83); assay: as above
COMMD6 (human) = COMMD6 (human) (UniProt Q7Z4G1); assay: as above
COMMD1 (human) [3] = target: COMMD1 (human) (UniProt Q8N668); assay: proximity labelling; BioID–MS: MAC-tagged (BirA*) bait in Flp-In T-REx 293, tetracycline and 50 μM biotin 24 h; lysis with 0.1% SDS and benzonase, Strep-Tactin beads; high-confidence interactions by SAINTexpress and CRAPome
COMMD2 (human) [4] = target: COMMD2 (human) (UniProt Q86X83); assay: as above
COMMD9 (human) [5] = target: COMMD9 (human) (UniProt Q9P000); assay: as above
CCDC22 (human) [6] = target: CCDC22 (human) (UniProt O60826); assay: as above
[7] = target: DENN domain-containing protein 10 (human) (UniProt Q8TCE6); assay: as above
CCDC93 (human) [8] = target: CCDC93 (human) (UniProt Q567U6); assay: as above
COMMD10 (human) = COMMD10 (human) (UniProt Q9Y6G5); assay: affinity purification with mass spectrometry; MAC-tagged bait stably expressed in Flp-In T-REx 293 (tetracycline 24 h); cleared lysate (50 mM HEPES pH 8.0, 150 mM NaCl, 0.5% IGEPAL) on Strep-Tactin beads, eluted with biotin; high-confidence interactions by SAINTexpress (BFDR < 0.05) and CRAPome against MAC-tagged GFP controls
COMMD3 (human) = COMMD3 (human) (UniProt Q9UBI1); assay: as above
COMMD9 (human) [9] = target: COMMD9 (human) (UniProt Q9P000); assay: as above
CCDC22 (human) [10] = target: CCDC22 (human) (UniProt O60826); assay: as above
[11] = target: VPS35L wild type with C-terminal MAC3-tag (human) (UniProt Q7Z3J2); assay: proximity labelling; BioID–MS with C-terminal MAC3-tag (ultraID) on wild type and RSS disease variants of CCDC22 and VPS35L in Flp-In T-REx 293; biotin 5 h
[12] = target: VPS35L(A830T) with C-terminal MAC3-tag (human) (UniProt Q7Z3J2); assay: as above
COMMD4 (human) = COMMD4 (human) (UniProt Q9H0A8); assay: affinity purification with mass spectrometry; MAC-tagged bait stably expressed in Flp-In T-REx 293 (tetracycline 24 h); cleared lysate (50 mM HEPES pH 8.0, 150 mM NaCl, 0.5% IGEPAL) on Strep-Tactin beads, eluted with biotin; high-confidence interactions by SAINTexpress (BFDR < 0.05) and CRAPome against MAC-tagged GFP controls
COMMD5 (human) = COMMD5 (human) (UniProt Q9GZQ3); assay: as above
CCDC93 (human) [13] = target: CCDC93 (human) (UniProt Q567U6); assay: as above
VPS35L (human) = VPS35L (human) (UniProt Q7Z3J2); assay: proximity labelling; BioID–MS: MAC-tagged (BirA*) bait in Flp-In T-REx 293, tetracycline and 50 μM biotin 24 h; lysis with 0.1% SDS and benzonase, Strep-Tactin beads; high-confidence interactions by SAINTexpress and CRAPome

For E2F4 (from UniProt Q16254 1-413), the binding (COMMD8 (human)) was “binds”.
For DSP (from UniProt P15924 1-2871), the binding (COMMD1 (human) [1]) was “binds”, the binding (COMMD2 (human) [2]) was “binds” and the binding (COMMD6 (human)) was “binds”.
In the case of DSG1 (from UniProt Q02413 50-1049), the binding (COMMD1 (human) [1]) is reported as “binds”, the binding (COMMD2 (human) [2]) is reported as “binds” and the binding (COMMD6 (human)) is reported as “binds”.
For E2F6 (from UniProt O75461 1-281), the binding (COMMD1 (human) [3]) was “binds”, the binding (COMMD2 (human) [4]) was “binds” and the binding (COMMD9 (human) [5]) was “binds”. The binding (COMMD1 (human) [1]) was “binds”.
For COMMD4 (from UniProt Q9H0A8 1-199), the binding (CCDC22 (human) [6]) was “binds” and the binding [7] was “binds”.
With COMMD10 (from UniProt Q9Y6G5 1-202) the binding (CCDC93 (human) [8]) was “binds” and the binding [7] was “binds”.
COMMD5 (from UniProt Q9GZQ3 1-224) was tested, and the binding (CCDC93 (human) [8]) was “binds” and the binding [7] was “binds”.
In the case of “gelsolin (GSN) (from UniProt P06396 28-782)”, the binding (COMMD10 (human)) is reported as “binds”, the binding (COMMD3 (human)) is reported as “binds” and the binding (COMMD9 (human) [9]) is reported as “binds”.
For EXOC4 (from UniProt Q96A65 1-974), the binding (CCDC22 (human) [10]) was “binds”.
In the case of VPS26C (from UniProt O14972 1-297), the binding [11] is reported as “binds”, the binding [12] is reported as “binds” and the binding [7] is reported as “binds”.
In the case of EXOC5 (from UniProt O00471 1-708), the binding (CCDC22 (human) [10]) is reported as “binds”.
For WASHC2A (from UniProt Q641Q2 1-1341), the binding (CCDC22 (human) [10]) was “binds”.
In the case of COMMD7 (from UniProt Q86VX2 1-200), the binding [7] is reported as “binds”.
DSC1 (from UniProt Q08554) was tested, and the binding (COMMD1 (human) [1]) was “binds”, the binding (COMMD2 (human) [2]) was “binds” and the binding (COMMD6 (human)) was “binds”.
EXOC6 (from UniProt Q8TAG9 1-804) was tested, and the binding (CCDC22 (human) [10]) was “binds”.
“Guanine nucleotide-binding protein G(s) subunit α (GNAS) (from UniProt P63092 1-394)” was tested, and the binding (COMMD10 (human)) was “binds”, the binding (COMMD3 (human)) was “binds” and the binding (COMMD4 (human)) was “binds”. The binding (COMMD5 (human)) was “binds” and the binding (COMMD9 (human) [9]) was “binds”.
With “MTMR2 (Myotubularin-related protein) (from UniProt Q13614 1-643)” the binding (CCDC22 (human) [10]) was “binds”.
In the case of MICAL3 (from UniProt Q7RTP6 1-2002), the binding (CCDC93 (human) [13]) is reported as “binds”.
In the case of “PCM1 (Pericentriolar Material 1) (from UniProt Q15154 1-2024)”, the binding (CCDC22 (human) [10]) is reported as “binds”.
HERC1 (from UniProt Q15751 1-4861) was tested, and the binding (VPS35L (human)) was “binds”.
With TFDP1 (from UniProt Q14186 1-410) the binding (COMMD8 (human)) was “binds” and the binding (COMMD1 (human) [1]) was “binds”.
With COMMD6 (from UniProt Q7Z4G1 1-85) the binding (CCDC93 (human) [8]) was “binds” and the binding [7] was “binds”.
With COMMD1 (from UniProt Q8N668 1-190) the binding (CCDC93 (human) [8]) was “binds” and the binding [7] was “binds”.
In the case of COMMD8 (from UniProt Q9NX08 1-183), the binding (CCDC93 (human) [8]) is reported as “binds” and the binding [7] is reported as “binds”.

These are yes or no findings as the source states them, for the method shown. Binding seen in cells or lysates may run through a third protein. A yes stands for co-enrichment or nearness to the bait. Other partners may have been found.
